Measured values taken from publication PMC11315920.
These are yes or no findings as the source states them, for the method shown. In cells and extracts the contact can be indirect. Here binding means that the protein was enriched with, or labelled near, the bait; the list need not be complete.

Amino acid sequences for entries named in this document (tags omitted).
UniProt P24782: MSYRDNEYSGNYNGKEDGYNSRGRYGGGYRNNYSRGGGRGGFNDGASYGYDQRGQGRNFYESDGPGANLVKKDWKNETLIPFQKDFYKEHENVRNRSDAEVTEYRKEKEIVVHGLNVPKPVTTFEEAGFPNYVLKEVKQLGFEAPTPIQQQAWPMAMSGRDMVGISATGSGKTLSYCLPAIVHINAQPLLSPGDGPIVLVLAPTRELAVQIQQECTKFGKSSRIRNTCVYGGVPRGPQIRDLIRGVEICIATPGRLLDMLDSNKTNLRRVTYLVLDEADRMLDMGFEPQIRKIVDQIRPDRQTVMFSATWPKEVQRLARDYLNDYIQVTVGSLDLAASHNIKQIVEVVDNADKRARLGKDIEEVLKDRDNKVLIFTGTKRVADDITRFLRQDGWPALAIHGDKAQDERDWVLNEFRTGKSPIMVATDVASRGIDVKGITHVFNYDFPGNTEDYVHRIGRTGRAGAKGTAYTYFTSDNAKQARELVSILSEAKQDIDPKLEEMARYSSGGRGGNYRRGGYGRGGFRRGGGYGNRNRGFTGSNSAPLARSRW

B1: elongation factor Spt5 (protein, UniProt O13936 1-990)
chain: MDTNSPKSIDKDANSTEVDAAEQDAASVKINSTRASPNGSDLLNDDSEAAKITTNEKQSSPVDSHNESPNDTTINKGEDGNENEVDNVNNNDKKEDEDNVEENEEEADANEEEEEDEEDDEEDEEDEDESGGGRRKRARHDRRNQFLDIEAEVDEDEEELEDEEDEIGREDGFIEEEVGADYVGDDRRHRELDRQRQELQSVDAERLAEEYREKYGRSQTVVGDTSNVPQRLLLPSVNDPNIWAVRCKIGKEKDIVFTIMRKAMDLQYTSSPLEIISAFQRDSLVGYIYVEARKQSHVLDALNGVLNVYTNNMILVPIKEMPDLLKVQKQVVELLPGAYVRIRRGKYAGDLAQVDNLSENGLTARVRIVPRIDYSDGLKRKNSATRPQARLFNESEAFKSNPSKFSKRGPRLFLFNNEEFEDGFLVKDIRISSLITEGVNPTLDEVSKFNPNNEDLDLSSLALSVKGGHAEFQPGDHVEVYVGEQTGVSGVVENVRGSVITMVSSDGLRLDVPSRGLRKRFRHGDYVKVIAGKYKDDTGMVVRISKDEVTFLSDTLMTELTVFSRDLGEASSAQAVNSAYELHDLVQLDVNTVACIFSVDRDTYKVIDQNGGVRTVLASQITMRHSNRRGVATDRNGAEIRIGDKVKEVGGEGKQGTILHIYRAFVFLHNRDIAENNGVFSARSRNVATIAAKGARISADLTKMNPALSNGPALPPVANLKRTIGRDKAIGATVRIRRGPMKGLLGVIKDTTDANARVELHTGNKMVTIPKENLLYTTKTGELISYTEFIERSRGIRPGSISTADGPNVPNWAQGARTPAVANGSRTPAWNTGSRTPAWNSGSKTPAWNSGSRTPAWNSGNKTPAWNAGSRTPAWNSGNKTPAWNVGNKTPAWNSGAKTPAWNAGNKTPSWNNGTKTPAWNANQTPMVANGTNTSWGQTPAYGGFSETNWDTEDNSKPYTAPTPGAWAAPTPGGWDDEEGDSPKYVPPSP
B2: Rpb8 (protein, UniProt Q92399 1-125)
chain: MSESVLLDEIFTVTSVDKQKYQRVSRITAVSGQNDMNLTLDINSQIYPLEKDATFSLQITSNLNSPDLKEAADYIMYGKVYRVEEAKDEKVSVYVSFGGLLMAIEGSHRKLYRLSLDHVYLLLRR
B3: SR protein kinase Dsk1 (enzyme, UniProt P36616 1-544)
chain: MGSDGSSLSPKVSQPGHTEIVDHVSEKVITNGKNVNKKVNAEVDGKSMVEKVKTHEENAEDYHYGGYHPVYIGEEFHHRRYVVERKLGWGHFSTVWLAYDRAAKRRVALKVVRSAEHYRETSIDEIRILQKIREGDEKHLGKKHIISLLDYFVHRGPNGAHVCMVFEVLGENLLSLIQSYGHRGVPVGIVKQIAYQLLIALDYLHRECGIIHTDLKPENVLICIDQDALQHIEAPATTSSPTSNTSSSKTRNNTGYTAKAPIIKRGQSVDNSAQERKTFAKNPTKNSKPAGQVIPSSPFTSTLSRFPSLEGAVSEISLRDSQKHNSHPNSPFSSGDNSLILDGVNGSQEPVPKITVKIADLGNACWTRKHFTNDVQTRQYRSPEVILGCRWGASADCWSFACIIFELLTGDYLFDPRNGNSYSKEDDHIAQIIELLVNYPKQMALSGKHSRDLFNRRGELRNIHKLKFWPLKDVLEQKYHFSAELAQQISDFLSPMLCFDPAKRTNAGYMSNSPWLREVADPTFKIETTGATGEDVPGWATEIR
B4: Red1, a core component of MTREC (protein, UniProt Q9UTR8 1-712)
chain: MSRSINLDELRKKALESKKKNEEDESNDSDKEDGEISEDDPVIDQSNSVPPMKVPTFPEQIPQLPPFDRFPGTNANFFPFGAPFMLPPALMFGPNTVPFFPQTASSNKTFSKRKRSSENSFNNRNKAKSSETSDSSNTSQSFKENRALKDTATSRPLALSSDTSYQKSEKAKSEKSPFLSTSKNSDANYSKTTNQKEAEKAVSQLFEVGVRFNDFIAEGIEPSVVHTLFLKLGLDSSSASSQGSLTLSADKAARSAKLRKIDSNLSDTHILPGDNGTPTVLPERKNLISLPLLKQDDWLSSSKPFGSSTPNVVIEFDSDDDGDDFSNSKIEQSNLEKPPSNSENGLTMSRSDYLALLRNKEEEIRRMTKLILRLESNKKPYRSPTSAADMKLPSVPVAAVDNKSKTHLDTFEKVVDLSSKADFVEAGPSISSSGASSSAATTNSDTTEQILEAPWLRKTEQIAVVHEEHPAQIKKSEIDILNNLIEKEEGELTKYQTLVKSKTEILTQLYTRKKQLLEQQGKGNVACLPKESDLSMDSITEVSAQADENSSQILSSKTSNAPNGTTETDFEDKVPLVDYISPFYRFKSYRFNQQFVERVPLKYRSLTYSNKIEPMKVFCKYETTGGVCNDDHCEASHFRDIKMTDDEIIQDLSRYIEGNDEIEKESYKSGLDIVMKNTDENTDFVDVATRIVEYHNLWKSERMTIPVAKVSI
B5: Mex67 (protein, UniProt Q9Y8G3 1-596)
chain: MLRRKRERRNAVKENEMVIDTPLEKRRTPGKPRATREPPISVVITGHSKGSEDDLISFVWRKVKVRLMNISYSPASVTAVVKSQDFSRLNGLNGAAFAGDHLAIRRVDGASNVTQDYRKAKTKRSFRSVSAPSLSALATQAQRNVSKTLPQSTNETIEKLRQFLQTRYQPATKFLDLGNLQQDPLLKQMGILAEASTKSKMFPALMKVASLNFPDVISVSLSDNNLQSVTAVTTLAQTWPKLLNLSLANNRITSLSDLDPWSPKTKLPELQELVLVGNPIVTTFANRAMDYQREMVSRFPKLRLLDGNSINSEIIASQSTVPFPVYQSFFDKVETEQIVNSFLAAFFKGWDENRSALVNQLYSPNATFSISLNASNVRTNFSQKTDTKKWGAYKMKSRNLLYSQSQKESKSRLFNGHEEISNAVKSLPATAHDLSDRSQWVFDGWNLVLPSVGAAIKIVVHGQFEEPQNKRLLRSFDRTLLILPGGSTGILIINDLLVIRSFAGSLGWLPGQSSVRTSNNAMSASASKPSDIVQPRPEQAMLDTRQQIVLKIKAETGLNDYYAHMCCEQNNWDYNSALASFLELKSRNVIPAEAFS
B6: Yra1 homologue Mlo3 (protein, UniProt Q09330 1-199)
chain: MSMELDQSLDAIIASKPKGGIRKRRARSNKPKPTKNAKPAVNTASALKSVISEESKIIVSNLPTDVTEAQVKELFVKSIGPCKRVSLAYGPNGRSKGIATIIFSRPGDATRAYEQYEGRLVDGTRKMKVEIILDPSRQLNSLAARVSPASNASATASKNGAKSSKRKTTRRRRTPNRPKKSAEELDKEMDDYFGSNEKE
B7: type I protein arginine N-methyltransferase (PRMT1) Rmt1 (enzyme, UniProt Q9URX7 1-340)
chain: MPGNTKKSADSGLTAKDYYFDSYSHWGIHEEMLKDDVRTLSYRDAIMQNPHLFRDKIVLDVGCGTGILSMFCARAGAKHVYGVDMSEIIHKAVQIVEVNKLSDRITLIQGKMEEIQLPVEKVDIIVSEWMGYFLLYESMLDTVLVARDRYLAPDGLLFPDRAQIQLAAIEDADYKSEKIGFWDDVYGFDFSPIKKDVWKEPLVDTVDRIAVNTNSCVILDLDLKTVKKEDLAFSSPFEITATRNDFVHAFLAWFDIEFSACHKPIKFSTGPFSRYTHWKQTVFYTHKDLTVKAGEYIRGTITCKPAEGNHRELDIDISYTFNPREPNREPVSEDLSYRMC

target: T1, Srp2-HTP (S. pombe) (UniProt P78814); assay: affinity purification with mass spectrometry; comparative interaction profiling: cells crosslinked with 0.01% formaldehyde for 10 min at 30 °C; HTP-tagged bait on IgG-sepharose, TEV elution, Ni-NTA agarose, imidazole elution; shotgun proteomics (LFQ), Dbp2-HTP relative to Srp2-HTP, no untagged control; n = 3 biological replicates
T1 sequence: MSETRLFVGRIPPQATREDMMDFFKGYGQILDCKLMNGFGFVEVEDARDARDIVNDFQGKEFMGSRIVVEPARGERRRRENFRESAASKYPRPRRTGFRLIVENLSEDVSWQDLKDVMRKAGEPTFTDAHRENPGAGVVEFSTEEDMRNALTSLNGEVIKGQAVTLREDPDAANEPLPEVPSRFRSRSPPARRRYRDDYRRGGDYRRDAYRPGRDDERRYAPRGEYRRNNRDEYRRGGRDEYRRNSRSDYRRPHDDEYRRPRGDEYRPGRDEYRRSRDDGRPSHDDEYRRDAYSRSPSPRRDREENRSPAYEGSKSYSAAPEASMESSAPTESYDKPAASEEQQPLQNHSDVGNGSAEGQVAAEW

binding, binds:
B1, B2, B3

target: Dbp2-HTP (S. pombe) (UniProt P24782); assay: as above

binding, binds:
B1, B4, B5, B6, B7
